Laboratory results reported in article PMC8972991.

Target: T1, Snakin-2 (StSN2) (potato (endogenous in tubers)) (UniProt Q93X17)
T1 sequence: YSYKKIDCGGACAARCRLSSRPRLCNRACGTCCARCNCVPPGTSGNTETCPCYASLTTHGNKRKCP
Assay: affinity purification with mass spectrometry; CoIP/MS screen for proteins interacting with StSN2; gel pieces from the CoIP after SDS-PAGE digested with trypsin, MS/MS (Orbitrap); precipitating antibody of the screen not stated

binding: binds
Substance: Cytoplasmic glyceraldehyde-3-phosphate dehydrogenase 1 (StGAPC1) (potato (endogenous in tubers)) (enzyme)

These are yes or no findings as the source states them, for the method shown. In cells and extracts the contact can be indirect. These calls come from enrichment with a bait or labelling near it, and not all partners need be listed.
